Test results reported in the supplement of paper PMC11006884.
Most of the targets with a hit are listed elsewhere, so they are rarer here than in the full data. Single values of this set are uncertain. The entries are a selection whose mix differs from that of the whole data set.

Compound: COC(=O)/C=C/c1ccccc1 [methyl cinnamate]
Assay: log2 ratio of iodoacetamide-alkyne labeling of the cysteine site, DMSO over compound (competition); higher = stronger covalent engagement of the cysteine by the compound, active = 1 or more
Settings: 500 µM; treatment time 1 h; system: HEK293T cell lysate
How it was run: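 For each cysteine, the log2 competition ratio is mean control-channel reporter intensity over mean compound-channel reporter intensity. HEK293T lysate (2 mg/mL) was exposed to vehicle or electrophile (500 µM, 1 h, ambient temperature), labelled with iodoacetamide alkyne (1 h), clicked to sCIP-TMT reagents, digested overnight with trypsin at 37 °C, streptavidin-enriched and analysed by Orbitrap Eclipse LC-MS/MS with FAIMS and FragPipe. Cysteines quantified in only one of three replicates, each with duplicate channels, were excluded.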

log2 ratio of iodoacetamide-alkyne labeling, inactive:
PEBP1 C133 (UniProt P30086) 0.186
DCK C9 (UniProt P27707) 0.207
EEF1G C266 (UniProt P26641) 0.339
FLNA C478 (UniProt P21333) 0.0938
FLNA C1260 (UniProt P21333) 0.318
VARS C381 (UniProt P26640) 0.173
PAICS C374 (UniProt P22234) -0.29
WARS C274 (UniProt P23381) 0.289
FLNA C2199 (UniProt P21333) 0.277
FBL C99 (UniProt P22087) 0.166
UniProt P25705_C244 0.0556
U2AF2 C464 (UniProt P26368) -0.00562
MPG C56 (UniProt P29372) 0.446
FLNA C796 (UniProt P21333) -0.207
UniProt P25398_C130 0.355
EPHA2 C612 (UniProt P29317) 0.209
RRM1 C26 (UniProt P23921) -0.0588
PTPN1 C32 (UniProt P18031) 0.0773
EEF1D C217 (UniProt P29692) 0.00628
PRDX5 C204 (UniProt P30044) -0.0349
FLNA C2543 (UniProt P21333) 0.35
MCM3 C319 (UniProt P25205) 0.0663
MSH3 C166 (UniProt P20585) 0.545
MCC C714 (UniProt P23508) 0.306
ECHS1 C225 (UniProt P30084) -0.052
GART C134 (UniProt P22102) 0.132
UniProt P28482_C254 -0.211
COMT C145 (UniProt P21964) 0.0785
COMT C238 (UniProt P21964) 0.0188
GART C291 (UniProt P22102) 0.191
UniProt P25398_C106 0.195
NCL C543 (UniProt P19338) 0.156
EEF1B2 C161 (UniProt P24534) -0.0525
POLD1 C1061 (UniProt P28340) 0.175
POLD1 C428 (UniProt P28340) 0.216
LMNB1 C198 (UniProt P20700) 0.246
UniProt P28482_C65 -0.0494

Retrieved one by one from above, 2 records:
log2 ratio of iodoacetamide-alkyne labeling, inactive:
MSH3 C166 (UniProt P20585) 0.545
COMT C238 (UniProt P21964) 0.0188
